Data as given in PubChem BioAssay AID720532 (National Center for Advancing Translational Sciences (NCATS), 2013).
The entries are a selection whose mix differs from that of the whole data set. Records with an inconclusive call do not appear. Activity calls are given as the source filed them. Calls come from the whole dose curve; tested in HEK293 cells.

Experiment: qHTS for Inhibitors of binding or entry into cells for Marburg Virus
Settings: Marburg virus pseudotype entry/binding inhibition, cell-based; series mostly up to 49.2 µM
Potency is the fitted concentration of half-maximal effect.

Row | Compound | Potency
1 | Fc1ccc(-c2ncn(C3CCNCC3)c2-c2ccnc(Oc3cccc(C(F)(F)F)c3)n2)cc1 | active: 4.99 µM
2 | O=C1NC(=O)c2c1c(-c1ccccc1)cc1[nH]c3ccc(O)cc3c21 | active: 2.82 µM
3 | Fc1ccc(-c2ncn(C3CCNCC3)c2-c2ccnc(Oc3cccc(F)c3)n2)cc1 | active: 3.53 µM
4 | O=C1NC(=O)C(c2ccccc2)=C1Nc1ccccc1 | inactive
5 | COc1ccccc1Oc1nccc(-c2c(-c3ccc(F)cc3)ncn2C2CCNCC2)n1 | active: 12.5 µM
6 | Fc1ccc(-c2ncn(C3CCNCC3)c2-c2ccnc(Oc3ccc(Cl)cc3)n2)cc1 | active: 6.28 µM
